Source: PubChem BioAssay AID912 (NCATS, 2007).

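Uptake of anthrax lethal toxin into cultured cells, read by FRET (460/530 nm ratio) and reported from the 460 nm channel; the cell line is not named here. Each compound was tested as a concentration series from about 0.0005 to 40 µM. The number is the fitted AC50 of the 460 nm signal alone; lower values mean a more potent effect. A falling signal goes with compounds filed as inhibitors or cytotoxic, a rising one with activators or fluorescent compounds (inferred from the filed classes).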

Values are in nM. Common to all entries: measured here: 460 nm channel. This is a side read-out of the assay, for part of the compounds, not drawn at random. A potency from a partial, single-point or poor curve is only a rough figure. The first word of each remark tells which way the curve ran; it can be opposite to the aim of the assay.

structure,AC50 (nM),curve
CCOc1ccccc1N1CCN(C(=O)Nc2ccc(F)c(Cl)c2)CC1,251.2,"falling, full curve, poor fit"
COc1ccc(C)cc1NC(=O)CSc1nnc(-c2ccco2)n1Cc1ccco1,3981,"rising, single point"
COC(=O)[C@@]1(Cc2ccc(F)cc2)[C@H]2c3cc(C(=O)N4CCCC4)n(Cc4ccccn4)c3C[C@H]2CN1C(=O)c1ccccc1,15848,"rising, partial curve"
COc1ccc(C(=O)N2CCC[C@@]3(CCN(C(=O)NC(C)C)C3)C2)cc1,5012,"falling, single point"
COC(=O)c1ccc(C)c(NC(=O)Cc2coc3cc(OC)ccc23)c1,7943,"falling, partial curve, poor fit"
CS(=O)(=O)N1CCN(C(=O)C2c3ccccc3Oc3ccccc32)CC1,12589,"rising, single point"
CCSc1nc(C)nc2c1oc1ccccc12,3.981,"rising, full curve, poor fit"
O=C(Nc1cc(Cl)ccc1O)c1cc2n(n1)C(C(F)(F)F)CC(c1ccc3c(c1)OCO3)N2 (centres undefined),2512,"falling, full curve"
CCC(C)NC(=O)c1c(N)n(Cc2ccc3c(c2)OCO3)c2nc3ccccc3nc12 (centres undefined),12589,"rising, partial curve"
CC(C)Cn1c(N)c(C(=O)COC(=O)c2ccc3c(c2)OCCO3)c(=O)n(C)c1=O,12589,"falling, partial curve"
CN1C[C@H](C(=O)N[C@]2(C)O[C@@]3(O)[C@@H]4CCCN4C(=O)[C@H](Cc4ccccc4)N3C2=O)C=C2c3cccc4[nH]cc(c34)C[C@H]21,10000,"falling, partial curve"
COc1ccc2c3c([nH]c2c1)C(C)=NCC3,25118,"rising, partial curve"
COCCn1c(-c2ccc(-c3ccccc3Cl)o2)nc2c1c(=O)[nH]c(=O)n2CC(C)C,12589,"rising, single point"
Cc1c(CCC(=O)O)c(=O)oc2cc(O)ccc12,12589,"rising, partial curve"
CCCCn1c(O)c(C(CC)=NCCc2ccccc2)c(=O)[nH]c1=O,10000,"rising, partial curve, poor fit"
Cc1cccc(OCC(=O)Nc2cc(C)ccc2O)c1,5012,"falling, single point"
COc1ccc(S(=O)(=O)NCC(=O)N(CC(=O)NCC2CCCO2)c2ccccc2C)cc1 (centres undefined),3981,"rising, full curve, poor fit"
COc1ccccc1C(=O)NCCn1cc(SCC(=O)NCc2ccco2)c2ccccc21,10000,"rising, single point"
COc1cccc(-c2nn(C)c3sc(C(=O)NCc4ccc5c(c4)OCO5)cc23)c1,12589,"falling, single point"
Cc1ccc(CSc2nc3c(c(=O)[nH]2)C(c2ccncc2)C2=C(CCCC2=O)N3)cc1 (centres undefined),10000,"rising, partial curve"
O=C(CSc1nnnn1-c1ccccc1)CC(=O)Nc1ccc(Cl)cc1,10000,"falling, partial curve"
CC(=O)c1ccc(-n2nnnc2SCC(=O)N2CCc3ccccc3C2)cc1,5012,"falling, single point"
O=C(Nc1ccc(S(=O)(=O)N2CCCCCC2)cc1)c1ccc(Br)o1,3162,"falling, partial curve"
O=C(Cn1c(=O)n(-c2cccc(Cl)c2)c(=O)n1CC(=O)N1CCCCC1)N1CCCCC1,125.9,"rising, full curve, poor fit"
c1cc2c(cc1C1CCCCC1)c1c3n2CCN[C@H]3CCC1,31622,"falling, single point"
c1ccc2c(-c3nnc4n3CCCCC4)c[nH]c2c1,5012,"rising, single point"
N#CCSc1nnc(C2CCCCC2)n1Cc1ccccc1,3162,"falling, partial curve"
CN1CCCC2(CCN(C(=O)c3ccncc3)CC2)C1,31622,"falling, single point"
COCc1cc(C)nc(SCC(=O)Nc2cccc(C)c2)c1C#N,5012,"rising, partial curve"
Cc1c(C(=O)NCCCN2CCCC2=O)oc2ccccc12,19952,"rising, partial curve, poor fit"
CCc1ccccc1N(CC(=O)NCc1ccco1)C(=O)c1snc(C(N)=O)c1N,15848,"rising, single point"
COc1ccccc1-c1cn[nH]c(=S)n1,12589,"falling, partial curve"
CCOCC(=O)Nc1cccc(C(=O)OCC)c1,794.3,"falling, full curve"
CC(=O)N1CCC(N(CCN2CCOCC2)C(=O)Nc2ccc(Cl)c(Cl)c2)CC1,3162,"rising, full curve, poor fit"
CC/C(=C(/CC)c1ccc(O)cc1)c1ccc(O)cc1,15848,"falling, partial curve"
c1ccc(-c2cc(-c3nc(-c4ccccn4)no3)c3ccccc3n2)cc1,1585,"falling, partial curve"
Cc1c(C(=O)O)oc2ccc(S(=O)(=O)NCc3ccc(F)cc3)cc12,31622,"rising, single point"
CCCCn1nnc(NC(=O)COc2cc(C)ccc2C(C)C)n1,12589,"falling, partial curve"
COc1ccc(OC)c(NC(=O)c2nnn(Cc3ccc(Br)cc3F)c2N)c1,7943,"falling, partial curve"
Cc1coc(NC(=O)CSc2nc(-c3ccncc3)cc(C(F)(F)F)c2C#N)n1,794.3,"falling, full curve"
CC(=O)[C@H](CC(C)C)NC(=O)[C@@H](CC(C)C)NC(=O)[C@H](CC(C)C)NC(=O)OCc1ccccc1,31.62,"rising, full curve"
Cc1cc(C)n(CCOC(=O)c2sc3ccccc3c2Cl)n1,12589,"rising, partial curve"
CCOC(=O)CSc1nc2ccc(NC(C)=O)cc2s1,25118,"rising, single point"
CCOc1ccc2[nH]c(=O)c(CN(Cc3ccc(F)cc3)C(=O)c3ccco3)cc2c1,19952,"falling, single point"
CCc1nn(CC(=O)NCCCN(CC)Cc2ccccc2)c(=O)c2cc3sccc3n12,1000,"falling, partial curve"
CC(C)c1ccc2oc(=O)cc(CN3CCN(c4ccccc4)CC3)c2c1,25.12,"falling, full curve"

For reference, 5 entries once more:

{"structure": "CCc1ccccc1N(CC(=O)NCc1ccco1)C(=O)c1snc(C(N)=O)c1N", "AC50 (nM)": "15848", "curve": "rising, single point"}
{"structure": "COc1ccc(OC)c(NC(=O)c2nnn(Cc3ccc(Br)cc3F)c2N)c1", "AC50 (nM)": "7943", "curve": "falling, partial curve"}
{"structure": "COC(=O)[C@@]1(Cc2ccc(F)cc2)[C@H]2c3cc(C(=O)N4CCCC4)n(Cc4ccccn4)c3C[C@H]2CN1C(=O)c1ccccc1", "AC50 (nM)": "15848", "curve": "rising, partial curve"}
{"structure": "COc1ccc(C)cc1NC(=O)CSc1nnc(-c2ccco2)n1Cc1ccco1", "AC50 (nM)": "3981", "curve": "rising, single point"}
{"structure": "Cc1c(C(=O)NCCCN2CCCC2=O)oc2ccccc12", "AC50 (nM)": "19952", "curve": "rising, partial curve, poor fit"}